The values below come from EP0043274A2, “Antithrombotic treatment” (priority 1980, dated 1982).

The data set has as its system RATS. Nature of the data set: Rats fed bait containing 0.5% sodium bisulfite. It counts as in vivo. An excerpt: Five rats, each in a separate cage, were given a bait containing 0.5 percent by weight of sodium bisulfite. The bait consisted of cracked grains (wheat, corn, millet, and corn meal). The amounts of bait eaten are summarized for an eleven day period.

Values joined by “and” are separate entries in the source; they are usually repeats but may differ in a detail not shown here. Identical values can stand only once.

Take Sodium bisulfite: the g bait eaten (1 day, rats 1-5) is 27.8 g and 25.9 g and 26.7 g and 28.0 g and 27.0 g; the g bait eaten (4 days) was 18.9 g and 10.1 g and 10.4 g; the g bait eaten (9 days) is 26.8 g and 27.8 g and 25.7 g; the g bait eaten (10 days) was 22.7 g and 26.2 g and 26.3 g; the g bait eaten (11 days) is 23.8 g and 21.0 g and 22.8 g; the g bait eaten (line headed 'days' between 2 days and 4 days) was 19.2 g and 19.4 g and 11.4 g.
